PubChem BioAssay AID504786 – Drosophila RNAi Screening Center – 2011

Assay: 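Positive regulators of HIF-driven reporter output in Drosophila cells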 (primary screen)
Cells: Drosophila S2 cells with a stable HIF luciferase reporter
Knock-down reagent: long dsRNA against Drosophila genes, about 0.2 µg dsRNA per well of a 384-well plate
Timing: three days of knock-down, then 20 h of DFO before reading
Treatment: desferrioxamine (DFO) at 100 µM, an iron chelator that mimics hypoxia, for 20 h
Measurement: 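HIF reporter luminescence in cells given 100 µM DFO for 20 h, using the mouse ldh-a hypoxia-response element, scored as per-plate z-scores; higher means greater loss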
Scale: z-score: higher = stronger loss of HIF reporter signal
The deposit covers about 21,000 reagents; shown is an unselected part of those that have a named target and a result. 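Primary screen; positive scores mean lost reporter signal, so the sign may be inverted from the usual convention.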 A plus sign joins genes that one reagent is predicted to hit.

target gene | amplicon | z-score, replicate 1 | z-score, replicate 2
Crys | DRSC03294 | 0.1 | -0.1
crp | DRSC03515 | -0.4 | 2.7
CG7276 | DRSC10797 | -0.2 | 0.1
DCTN5-p25 | DRSC03525 | -0.2 | 0.1
CG31313 | DRSC13044 | 0.3 | 0
cnk | DRSC07595 | 0.1 | 0.3
fra | DRSC07621 | -0.3 | -0.3
wde | DRSC05955 | 0.6 | 1.3
CG18418 | DRSC08535 | -0.4 | -0.7
CG16984 | DRSC08500 | -0.3 | -0.2
CG14007 | DRSC02339 | -0.2 | -0.3
CG15535 | DRSC15071 | -0.6 | -0.7
ApepP | DRSC01866 | 0.1 | -0.1
CG5004 | DRSC19929 | -0.3 | -0.1
CG5004 | DRSC19930 | 0.1 | -0.4
CG5004 | DRSC20123 | 0.9 | 0.8
Rbm13 | DRSC17749 | 0.6 | 3
lbm | DRSC07643 | 0.1 | 0.1
CG33769 | DRSC11716 | -0.3 | 0.2
Toll-7 | DRSC07563 | -0.4 | -0.3
CG12910 | DRSC06225 | -0.3 | -0.1
ppk8 | DRSC17269 | -0.1 | 0
CG17698 | DRSC11907 | -0.2 | -0.5
Acsl | DRSC07252 | -0.5 | -0.7
MFS12 | DRSC07268 | -0.2 | 0.3
Sod1 | DRSC11286 | -0.3 | -0.4
CG5768 | DRSC15870 | -0.3 | -0.6
CG10348 | DRSC02043 | -0.4 | 0
mof | DRSC18795 | 0.1 | 0.2

Next part (4 carried over from the part before).
target gene | amplicon | z-score, replicate 1 | z-score, replicate 2
Sod1 | DRSC11286 | -0.3 | -0.4
CG5768 | DRSC15870 | -0.3 | -0.6
CG10348 | DRSC02043 | -0.4 | 0
mof | DRSC18795 | 0.1 | 0.2
Phae2 | DRSC02555 | -0.4 | -0.2
CG13775 | DRSC02279 | -0.1 | 0
Nfs1 | DRSC02154 | -0.1 | -0.6
CG32795 | DRSC18609 | -0.1 | 0
CG32795 | DRSC18610 | -0.2 | -0.7
CG1647 | DRSC15134 | -0.3 | -0.1
CG7101 | DRSC20023 | -0.3 | -0.6
Jon65Ai | DRSC09731 | -0.4 | -0.6
mir-210 (retired record) | DRSC19230 | -0.2 | -0.1
CG7202 | DRSC11818 | -0.2 | -0.3
galene | DRSC08640 | -0.4 | -0.3
galene | DRSC08641 | -0.3 | -0.9
Cpr100A | DRSC14465 | 0.1 | -0.8
shn | DRSC05266 | -0.1 | -0.2
shn | DRSC07681 | 0.1 | 0.5
CG11906 | DRSC06096 | -0.2 | 0.8
Sema1b | DRSC07550 | -0.4 | -1.2
gammaSnap2 | DRSC15992 | -0.3 | -0.5
CG11413 + CG4622 | DRSC04109 | 0.2 | 0
CG17549 | DRSC02625 | -0.3 | -0.1
Obp50c + Obp50b | DRSC05482 | -0.2 | -0.3
mthl12 | DRSC12964 | -0.1 | 0.1
CG15330 | DRSC18014 | -0.3 | -0.4
CG5151 | DRSC10487 | 3.4 | 0.2
DIP-epsilon | DRSC00932 | 0.3 | -0.2
DIP-epsilon | DRSC02313 | 0.2 | 0.3
CG8170 | DRSC07087 | -0.2 | -0.4
CG32054 | DRSC10684 | -0.3 | -0.7
CG13539 | DRSC04181 | -0.4 | -0.4
CG5986 | DRSC15931 | -0.2 | -0.2
ninaA | DRSC00830 | -0.3 | -0.8
Alp13 | DRSC15781 | -0.4 | -0.8
GATAd | DRSC02803 | -0.2 | -0.4
CG42568 + DnaJ-60 | DRSC04207 | -0.1 | 0.1
CG42568 + DnaJ-60 | DRSC04611 | -0.4 | -0.6
CG17211 | DRSC02587 | -0.3 | -0.4
Rbbp5 + CG6434 (retired record) | DRSC10635 | -0.3 | -0.3
SMC1 | DRSC16846 | 0.1 | 0
Pus10 | DRSC00629 | -0.1 | 0.3
Osi1 | DRSC12271 | -0.2 | -0.3
CG11638 | DRSC18167 | -0.4 | 0.4
CG11638 | DRSC18640 | -0.4 | -0.5
Dh44-R2 | DRSC06141 | -0.3 | -0.5
Dh44-R2 | DRSC06281 | 0.1 | 0.2
CG11248 | DRSC11644 | -0.3 | -0.2
Spag1 | DRSC15331 | -0.2 | -0.5
PIG-Wb | DRSC08526 | -0.3 | -0.2
CG17683 | DRSC21160 | -0.4 | -0.5
Msp300 | DRSC00854 | 0.4 | 0
Msp300 | DRSC00856 | -0.3 | -0.3
Msp300 | DRSC00857 | -0.3 | -0.6
Msp300 | DRSC00858 | 1 | 0.2
Msp300 | DRSC02360 | -0.1 | 0.1
Msp300 | DRSC03369 | -0.4 | -0.7
Msp300 | DRSC03370 | -0.3 | -0.3
